These are yes or no findings as the source states them, for the method shown. Binding seen in cells or lysates may run through a third protein. A yes stands for co-enrichment or nearness to the bait. Other partners may have been found. For part of these data: No binding means not detected with the bait. For part of these data: Tags and fused reporters may be left off the sequences shown.
How the values were obtained:
[1] = target: JUN (endogenous) (human (endogenous in HEK293T)) (UniProt P05412); experiment: affinity purification with mass spectrometry; AP/MS with antibodies against endogenous JUN; soluble fraction
[2] = target: JUN (endogenous) (human (endogenous in HEK293T)) (UniProt P05412); experiment: affinity purification with mass spectrometry; AP/MS with antibodies against endogenous JUN; chromatin fraction
[3] = target: T1, ATF3 as bait of the reciprocal TAP/MS (UniProt P18847); experiment: affinity purification with mass spectrometry; TAP (streptavidin beads, biotin elution, S-protein beads; NETN buffer) of C-terminally SFB-tagged bait from HEK293T; soluble fraction (supernatant of the NETN lysate); forward and reciprocal purifications
T1 sequence: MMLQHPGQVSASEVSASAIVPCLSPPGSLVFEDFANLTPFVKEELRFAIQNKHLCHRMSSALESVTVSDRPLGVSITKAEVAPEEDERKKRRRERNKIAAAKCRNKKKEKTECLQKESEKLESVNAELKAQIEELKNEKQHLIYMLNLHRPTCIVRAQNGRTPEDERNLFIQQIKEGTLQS

Sequences of proteins named here, by UniProt entry; tags and fusion partners are left off.
UniProt P05412: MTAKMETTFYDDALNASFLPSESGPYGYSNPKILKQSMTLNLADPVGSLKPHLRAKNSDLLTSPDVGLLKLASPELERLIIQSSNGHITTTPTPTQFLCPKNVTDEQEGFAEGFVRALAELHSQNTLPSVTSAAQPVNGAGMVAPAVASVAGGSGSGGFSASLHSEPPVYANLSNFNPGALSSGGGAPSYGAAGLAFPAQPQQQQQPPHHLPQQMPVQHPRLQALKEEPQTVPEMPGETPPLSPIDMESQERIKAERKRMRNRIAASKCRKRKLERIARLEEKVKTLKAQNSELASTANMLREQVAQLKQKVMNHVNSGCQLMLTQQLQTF
UniProt P16220: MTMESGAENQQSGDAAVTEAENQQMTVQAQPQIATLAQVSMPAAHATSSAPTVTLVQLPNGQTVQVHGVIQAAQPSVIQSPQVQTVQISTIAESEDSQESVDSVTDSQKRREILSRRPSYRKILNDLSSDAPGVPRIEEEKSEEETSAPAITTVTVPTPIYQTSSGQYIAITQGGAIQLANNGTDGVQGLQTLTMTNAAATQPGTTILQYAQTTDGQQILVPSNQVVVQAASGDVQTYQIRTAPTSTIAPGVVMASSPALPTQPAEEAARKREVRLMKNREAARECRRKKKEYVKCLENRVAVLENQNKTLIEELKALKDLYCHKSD
UniProt P35453: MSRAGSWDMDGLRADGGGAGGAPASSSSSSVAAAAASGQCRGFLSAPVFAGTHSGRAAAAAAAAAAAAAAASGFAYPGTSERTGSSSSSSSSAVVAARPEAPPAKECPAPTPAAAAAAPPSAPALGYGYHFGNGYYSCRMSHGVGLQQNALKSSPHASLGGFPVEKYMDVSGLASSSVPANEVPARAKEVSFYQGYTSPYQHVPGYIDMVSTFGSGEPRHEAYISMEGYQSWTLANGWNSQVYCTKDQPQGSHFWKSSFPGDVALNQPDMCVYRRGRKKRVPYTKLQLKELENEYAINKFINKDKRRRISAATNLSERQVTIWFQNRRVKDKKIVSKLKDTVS
UniProt Q9UKB1: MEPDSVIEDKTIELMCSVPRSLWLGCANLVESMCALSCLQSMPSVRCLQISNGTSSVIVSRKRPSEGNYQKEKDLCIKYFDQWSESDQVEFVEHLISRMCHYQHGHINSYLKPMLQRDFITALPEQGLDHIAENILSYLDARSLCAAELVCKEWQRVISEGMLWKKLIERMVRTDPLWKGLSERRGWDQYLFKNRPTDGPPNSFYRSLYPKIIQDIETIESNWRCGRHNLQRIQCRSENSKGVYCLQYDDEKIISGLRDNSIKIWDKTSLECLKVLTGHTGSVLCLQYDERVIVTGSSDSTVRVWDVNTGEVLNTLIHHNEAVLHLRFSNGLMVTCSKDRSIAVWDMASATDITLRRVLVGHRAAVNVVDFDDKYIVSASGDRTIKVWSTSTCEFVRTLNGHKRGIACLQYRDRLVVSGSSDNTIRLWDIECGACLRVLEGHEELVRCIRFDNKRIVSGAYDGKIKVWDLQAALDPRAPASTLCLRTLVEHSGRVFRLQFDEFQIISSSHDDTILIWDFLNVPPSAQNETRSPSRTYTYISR

SFB-tagged ATF1 [4] = target: T2, SFB-tagged ATF1 (UniProt P18846); experiment: as above
T2 sequence: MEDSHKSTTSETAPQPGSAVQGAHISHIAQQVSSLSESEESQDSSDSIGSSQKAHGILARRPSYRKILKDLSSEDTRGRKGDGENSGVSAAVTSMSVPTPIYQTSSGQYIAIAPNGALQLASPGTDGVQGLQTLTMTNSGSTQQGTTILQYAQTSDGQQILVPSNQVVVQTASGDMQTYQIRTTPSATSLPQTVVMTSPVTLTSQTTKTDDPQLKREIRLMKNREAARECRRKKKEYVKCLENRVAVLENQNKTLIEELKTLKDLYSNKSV

SFB-tagged CREB1 (human) [5] = target: SFB-tagged CREB1 (human) (UniProt P16220); experiment: as above
[6] = target: T1, ATF3 as bait of the reciprocal TAP/MS; experiment: affinity purification with mass spectrometry; TAP (streptavidin beads, biotin elution, S-protein beads; NETN buffer) of C-terminally SFB-tagged bait from HEK293T; chromatin fraction (pellet after NETN lysis, digested with TurboNuclease); forward and reciprocal purifications; some baits also after drug treatment
[7] = target: HOXD13 as bait of the reciprocal TAP/MS (UniProt P35453); experiment: as above
SFB-tagged ATF1 [8] = target: T2, SFB-tagged ATF1; experiment: as above
SFB-tagged CREB1 (human) [9] = target: SFB-tagged CREB1 (human) (UniProt P16220); experiment: as above
SFB-tagged JUN (human) = SFB-tagged JUN (human) (UniProt P05412); experiment: as above
[10] = target: βTRCP2/FBXW11 as bait of the reciprocal TAP/MS (UniProt Q9UKB1); experiment: affinity purification with mass spectrometry; TAP (streptavidin beads, biotin elution, S-protein beads; NETN buffer) of C-terminally SFB-tagged bait from HEK293T; soluble fraction (supernatant of the NETN lysate); forward and reciprocal purifications
[11] = target: βTRCP2/FBXW11 as bait of the reciprocal TAP/MS (UniProt Q9UKB1); experiment: affinity purification with mass spectrometry; TAP (streptavidin beads, biotin elution, S-protein beads; NETN buffer) of C-terminally SFB-tagged bait from HEK293T; chromatin fraction (pellet after NETN lysis, digested with TurboNuclease); forward and reciprocal purifications; some baits also after drug treatment

B1: NFATC1 (endogenous) (protein, UniProt O95644 1-943)
chain: MPSTSFPVPSKFPLGPAAAVFGRGETLGPAPRAGGTMKSAEEEHYGYASSNVSPALPLPTAHSTLPAPCHNLQTSTPGIIPPADHPSGYGAALDGGPAGYFLSSGHTRPDGAPALESPRIEITSCLGLYHNNNQFFHDVEVEDVLPSSKRSPSTATLSLPSLEAYRDPSCLSPASSLSSRSCNSEASSYESNYSYPYASPQTSPWQSPCVSPKTTDPEEGFPRGLGACTLLGSPRHSPSTSPRASVTEESWLGARSSRPASPCNKRKYSLNGRQPPYSPHHSPTPSPHGSPRVSVTDDSWLGNTTQYTSSAIVAAINALTTDSSLDLGDGVPVKSRKTTLEQPPSVALKVEPVGEDLGSPPPPADFAPEDYSSFQHIRKGGFCDQYLAVPQHPYQWAKPKPLSPTSYMSPTLPALDWQLPSHSGPYELRIEVQPKSHHRAHYETEGSRGAVKASAGGHPIVQLHGYLENEPLMLQLFIGTADDRLLRPHAFYQVHRITGKTVSTTSHEAILSNTKVLEIPLLPENSMRAVIDCAGILKLRNSDIELRKGETDIGRKNTRVRLVFRVHVPQPSGRTLSLQVASNPIECSQRSAQELPLVEKQSTDSYPVVGGKKMVLSGHNFLQDSKVIFVEKAPDGHHVWEMEAKTDRDLCKPNSLVVEIPPFRNQRITSPVHVSFYVCNGKRKRSQYQRFTYLPANVPIIKTEPTDDYEPAPTCGPVSQGLSPLPRPYYSQQLAMPPDPSSCLVAGFPPCPQRSTLMPAAPGVSPKLHDLSPAAYTKGVASPGHCHLGLPQPAGEAPAVQDVPRPVATHPGSPGQPPPALLPQQVSAPPSSSCPPGLEHSLCPSSPSPPLPPATQEPTCLQPCSPACPPATGRPQHLPSTVRRDESPTAGPRLLPEVHEDGSPNLAPIPVTVKREPEELDQLYLDDVNEIIRNDLSSTSTHS
With B1 the binding [1] was “no binding (only in the soluble fraction)”, the binding [2] was “binds” and the binding [3] was “no binding (only in the soluble fraction)”. The binding (SFB-tagged ATF1 [4]) was “no binding (only in the soluble fraction)”, the binding (SFB-tagged CREB1 (human) [5]) was “no binding (only in the soluble fraction)” and the binding [6] was “binds”. For the same binder, the binding [7] was “binds”, the binding (SFB-tagged ATF1 [8]) was “binds” and the binding (SFB-tagged CREB1 (human) [9]) was “binds”. For the same binder, the binding (SFB-tagged JUN (human)) was “binds”.

B2: FOXN2 (endogenous) (protein, UniProt P32314 1-431)
chain: MGPVIGMTPDKRAETPGAEKIAGLSQIYKMGSLPEAVDAARPKATLVDSESADDELTNLNWLHESTNLLTNFSLGSEGLPIVSPLYDIEGDDVPSFGPACYQNPEKKSATSKPPYSFSLLIYMAIEHSPNKCLPVKEIYSWILDHFPYFATAPTGWKNSVRHNLSLNKCFQKVERSHGKVNGKGSLWCVDPEYKPNLIQALKKQPFSSASSQNGSLSPHYLSSVIKQNQVRNLKESDIDAAAAMMLLNTSIEQGILECEKPLPLKTALQKKRSYGNAFHHPSAVRLQESDSLATSIDPKEDHNYSASSMAAQRCASRSSVSSLSSVDEVYEFIPKNSHVGSDGSEGFHSEEDTDVDYEDDPLGDSGYASQPCAKISEKGQSGKKMRKQTCQEIDEELKEAAGSLLHLAGIRTCLGSLISTAKTQNQKQRKK
B2 was tested, and the binding [10] was “binds” and the binding [11] was “no binding (only in the chromatin fraction)”.
